Laboratory results reported in article PMC8998743, “Dimerization Activity of a Disordered N-Terminal Domain from Drosophila CLAMP Protein” (International Journal of Molecular Sciences, 2022).
No constants are given. Whether binding was seen depends on the method and setting. Binding calls can cover weak binding; strength is not graded here. Sequences can lack the tags named with a protein.

Assays:
[1] = target: T1, CLAMP^1–153 (GAL4 fusion for Y2H) (D. melanogaster) (UniProt Q9V9N4); assay: two-hybrid; GAL4 DNA-binding domain (pGBT9) and activation domain (pGAD424) fusions in yeast strain pJ69-4A; growth on selective media without tryptophan, leucine, histidine, or adenine, compared after 2-3 days; 30 °C
T1 sequence: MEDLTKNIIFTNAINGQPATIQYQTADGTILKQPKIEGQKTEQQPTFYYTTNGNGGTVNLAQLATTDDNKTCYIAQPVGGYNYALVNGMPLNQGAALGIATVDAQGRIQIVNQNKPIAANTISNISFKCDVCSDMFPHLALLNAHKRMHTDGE

[2] = target: T2, D. melanogaster MSL2 (GAL4 fusion for Y2H) (D. melanogaster) (UniProt P50534); assay: as above
T2 sequence: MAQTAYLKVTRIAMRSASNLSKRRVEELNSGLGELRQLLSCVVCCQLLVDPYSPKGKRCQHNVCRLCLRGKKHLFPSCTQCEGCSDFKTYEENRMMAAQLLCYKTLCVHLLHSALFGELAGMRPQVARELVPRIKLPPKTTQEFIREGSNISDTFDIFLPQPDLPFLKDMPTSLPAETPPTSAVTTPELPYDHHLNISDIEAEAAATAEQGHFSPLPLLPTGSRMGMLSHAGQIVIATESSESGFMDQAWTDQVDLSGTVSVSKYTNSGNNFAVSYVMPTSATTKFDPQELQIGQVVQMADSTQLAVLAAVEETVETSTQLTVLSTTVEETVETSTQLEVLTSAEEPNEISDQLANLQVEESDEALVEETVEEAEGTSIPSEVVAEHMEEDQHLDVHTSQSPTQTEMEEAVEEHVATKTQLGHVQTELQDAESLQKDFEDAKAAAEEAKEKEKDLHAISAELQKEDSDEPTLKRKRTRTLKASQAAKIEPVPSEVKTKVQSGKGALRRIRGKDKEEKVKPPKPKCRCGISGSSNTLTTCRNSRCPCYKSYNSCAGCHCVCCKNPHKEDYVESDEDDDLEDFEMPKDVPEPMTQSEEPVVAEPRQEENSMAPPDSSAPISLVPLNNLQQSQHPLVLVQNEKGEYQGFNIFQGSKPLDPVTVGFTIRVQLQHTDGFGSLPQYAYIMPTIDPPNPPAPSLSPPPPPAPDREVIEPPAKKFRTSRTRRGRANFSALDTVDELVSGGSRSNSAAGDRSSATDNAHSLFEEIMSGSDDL

Row | binding [1] | binding [2] | Substance
1 | binds | – | CLAMP N-terminal region with deletion of 68–94 (GAL4 fusion for Y2H) (D. melanogaster) (domain or fragment)
2 | – | binds | amCLAMP^1–204 (GAL4 fusion for Y2H) (Apis mellifera) (domain or fragment)
